PubChem BioAssay AID1259254 | NCATS | 2017
Test: 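Finding genes that stop cells copying their DNA twice in one cycle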 (primary screen). System: human HCT116 colorectal cancer cells. Reagent: single siRNA against human genes. Timing: 3 days. Measured: 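Imaged Hoechst DNA stain sorts each cell into a cycle phase by DNA amount; per plate, G2 fraction set to 0% for non-targeting and 100% for GMNN siRNA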. Reading the numbers: G2 robust z-score and G2 cells, % of GMNN control: higher = more G2 cells, more excess DNA replication. Rule for the call: 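An siRNA counts as active if its G2 robust z-score lies at least 5 MADs above the screen median; here such calls match roughly 38% of GMNN control or more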.
Here is a random part of about 59,000 reagents tested. Over the whole deposit, about 1,550 (2.6%) were called active. 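G2 share is only a proxy for re-replication; each gene was hit by three separate siRNAs, and active genes were retested.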 The numbers tell different reagents against one gene apart. Not all columns of the deposit are shown. No sequences are given here. Not stated in the record: the amount of reagent.

After knock-down of NOBOX #1, the record shows G2 robust z-score -0.162; G2 cells, % of GMNN control 1.83; inactive.
For NOBOX #2, the values are G2 robust z-score -1.2; G2 cells, % of GMNN control -5.46; inactive.
With knock-down of NOBOX #3 the results were G2 robust z-score -0.256; G2 cells, % of GMNN control 1.17; inactive.
ABCG2 #1 scored G2 robust z-score -0.374; G2 cells, % of GMNN control 0.334; inactive.
ABCG2 #2 showed G2 robust z-score 0.833; G2 cells, % of GMNN control 8.83; inactive.
For ABCG2 #3, the entry reads G2 robust z-score 0.52; G2 cells, % of GMNN control 6.63; inactive.
With knock-down of ARMC2 #1, the screen gave G2 robust z-score -0.356; G2 cells, % of GMNN control 0.459; inactive.
For ARMC2 #2, the entry reads G2 robust z-score -0.866; G2 cells, % of GMNN control -3.12; inactive.
Depletion of ARMC2 #3 came out at: G2 robust z-score 0.338; G2 cells, % of GMNN control 5.35; inactive.
For PHOX2B #1 the deposit lists G2 robust z-score 0.86; G2 cells, % of GMNN control 9.01; inactive.
For PHOX2B #2, the values are G2 robust z-score 0.447; G2 cells, % of GMNN control 6.11; inactive.
With knock-down of PHOX2B #3, the record shows G2 robust z-score 2.62; G2 cells, % of GMNN control 21.4; inactive.
Against SIRPD #1 the deposit lists G2 robust z-score 0.672; G2 cells, % of GMNN control 7.7; inactive.
Depletion of SIRPD #2 resulted in: G2 robust z-score -0.924; G2 cells, % of GMNN control -3.53; inactive.
After knock-down of SIRPD #3, the record shows G2 robust z-score 0.288; G2 cells, % of GMNN control 4.99; inactive.
Knock-down of MYH1 #1 resulted in: G2 robust z-score -1.07; G2 cells, % of GMNN control -4.58; inactive.
Depletion of MYH1 #2 gave: G2 robust z-score -0.629; G2 cells, % of GMNN control -1.46; inactive.
Knock-down of MYH1 #3 resulted in: G2 robust z-score 0.032; G2 cells, % of GMNN control 3.19; inactive.

Copied from the list:
PHOX2B #2, G2 cells, % of GMNN control → 6.11
For “call”, ABCG2 #1 is entered as inactive
